For 23 targets, log2 fold change results are on record in the supplement of paper PMC10849652.

Sequences of proteins named here, by UniProt entry; tags and fusion partners are left off. A change or cut given only in a name is not applied to a line headed by its entry.
UniProt Q9HBU6: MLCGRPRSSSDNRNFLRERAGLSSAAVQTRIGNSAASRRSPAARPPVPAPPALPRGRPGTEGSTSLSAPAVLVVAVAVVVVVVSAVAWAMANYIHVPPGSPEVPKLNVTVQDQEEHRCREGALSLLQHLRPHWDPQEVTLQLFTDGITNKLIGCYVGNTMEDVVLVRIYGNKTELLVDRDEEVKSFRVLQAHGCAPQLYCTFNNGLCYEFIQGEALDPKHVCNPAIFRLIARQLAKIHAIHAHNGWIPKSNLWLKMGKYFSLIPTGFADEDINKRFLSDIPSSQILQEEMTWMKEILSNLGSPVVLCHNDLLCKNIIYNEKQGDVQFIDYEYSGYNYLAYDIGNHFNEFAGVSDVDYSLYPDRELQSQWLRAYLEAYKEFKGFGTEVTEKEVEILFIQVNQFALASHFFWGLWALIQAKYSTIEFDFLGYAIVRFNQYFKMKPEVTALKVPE
UniProt Q96A26: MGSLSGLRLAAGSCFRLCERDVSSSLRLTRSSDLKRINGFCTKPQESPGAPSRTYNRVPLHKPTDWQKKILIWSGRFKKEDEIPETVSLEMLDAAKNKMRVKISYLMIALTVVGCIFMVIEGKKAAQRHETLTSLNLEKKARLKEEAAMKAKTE
UniProt Q15910, whole entry, looked up: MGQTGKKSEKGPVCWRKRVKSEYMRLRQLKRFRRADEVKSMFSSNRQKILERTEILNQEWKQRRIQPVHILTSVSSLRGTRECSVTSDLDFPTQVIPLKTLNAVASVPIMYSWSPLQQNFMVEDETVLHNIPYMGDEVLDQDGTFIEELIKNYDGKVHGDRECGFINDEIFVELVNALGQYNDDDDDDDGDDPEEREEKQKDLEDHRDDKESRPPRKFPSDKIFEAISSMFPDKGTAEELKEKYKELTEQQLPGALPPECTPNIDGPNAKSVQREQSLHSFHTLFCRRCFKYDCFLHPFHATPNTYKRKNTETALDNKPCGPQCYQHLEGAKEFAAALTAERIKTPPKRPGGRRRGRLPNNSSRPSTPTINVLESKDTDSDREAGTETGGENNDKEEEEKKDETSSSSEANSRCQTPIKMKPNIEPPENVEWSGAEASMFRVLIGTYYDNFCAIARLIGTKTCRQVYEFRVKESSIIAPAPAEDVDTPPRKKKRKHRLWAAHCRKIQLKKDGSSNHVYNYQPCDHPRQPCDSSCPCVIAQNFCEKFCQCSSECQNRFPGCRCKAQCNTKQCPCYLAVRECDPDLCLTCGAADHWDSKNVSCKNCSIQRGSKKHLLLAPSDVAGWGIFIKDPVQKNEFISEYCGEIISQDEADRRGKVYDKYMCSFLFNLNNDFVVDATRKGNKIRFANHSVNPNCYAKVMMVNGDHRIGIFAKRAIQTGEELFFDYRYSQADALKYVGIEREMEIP
UniProt Q96DF8: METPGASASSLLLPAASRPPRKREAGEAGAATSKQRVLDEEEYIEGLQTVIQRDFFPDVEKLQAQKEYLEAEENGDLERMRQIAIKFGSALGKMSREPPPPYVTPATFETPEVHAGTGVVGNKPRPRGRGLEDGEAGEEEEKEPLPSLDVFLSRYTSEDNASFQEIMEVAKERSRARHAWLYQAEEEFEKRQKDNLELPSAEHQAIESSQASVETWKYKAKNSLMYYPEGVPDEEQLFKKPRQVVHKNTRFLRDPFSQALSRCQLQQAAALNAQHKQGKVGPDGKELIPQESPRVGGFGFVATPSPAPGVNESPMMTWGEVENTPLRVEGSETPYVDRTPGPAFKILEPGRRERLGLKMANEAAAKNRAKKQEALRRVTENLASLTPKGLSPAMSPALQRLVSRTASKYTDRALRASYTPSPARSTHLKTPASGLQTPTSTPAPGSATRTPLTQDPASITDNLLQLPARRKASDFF
UniProt Q8TAG9: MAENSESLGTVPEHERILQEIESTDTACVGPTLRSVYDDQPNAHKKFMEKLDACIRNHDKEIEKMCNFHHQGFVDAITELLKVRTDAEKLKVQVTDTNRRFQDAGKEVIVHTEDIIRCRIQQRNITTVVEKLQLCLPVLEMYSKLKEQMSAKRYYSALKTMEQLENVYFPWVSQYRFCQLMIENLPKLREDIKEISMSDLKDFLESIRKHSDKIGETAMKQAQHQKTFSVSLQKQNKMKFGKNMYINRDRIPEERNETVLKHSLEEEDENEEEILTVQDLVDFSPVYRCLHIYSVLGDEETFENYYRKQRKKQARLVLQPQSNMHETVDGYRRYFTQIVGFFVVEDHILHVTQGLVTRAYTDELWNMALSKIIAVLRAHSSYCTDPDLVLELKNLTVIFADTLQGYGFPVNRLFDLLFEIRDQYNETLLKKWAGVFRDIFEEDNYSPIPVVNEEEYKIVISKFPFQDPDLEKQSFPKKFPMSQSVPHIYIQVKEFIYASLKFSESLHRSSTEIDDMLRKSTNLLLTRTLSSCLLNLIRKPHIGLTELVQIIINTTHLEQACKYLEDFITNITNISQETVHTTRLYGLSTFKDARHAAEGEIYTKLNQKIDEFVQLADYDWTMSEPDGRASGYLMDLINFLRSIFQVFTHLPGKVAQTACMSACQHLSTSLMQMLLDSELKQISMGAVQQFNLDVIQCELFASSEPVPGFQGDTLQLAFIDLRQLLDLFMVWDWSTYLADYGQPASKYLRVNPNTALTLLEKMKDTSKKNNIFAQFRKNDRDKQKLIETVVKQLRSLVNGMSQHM
UniProt P12259: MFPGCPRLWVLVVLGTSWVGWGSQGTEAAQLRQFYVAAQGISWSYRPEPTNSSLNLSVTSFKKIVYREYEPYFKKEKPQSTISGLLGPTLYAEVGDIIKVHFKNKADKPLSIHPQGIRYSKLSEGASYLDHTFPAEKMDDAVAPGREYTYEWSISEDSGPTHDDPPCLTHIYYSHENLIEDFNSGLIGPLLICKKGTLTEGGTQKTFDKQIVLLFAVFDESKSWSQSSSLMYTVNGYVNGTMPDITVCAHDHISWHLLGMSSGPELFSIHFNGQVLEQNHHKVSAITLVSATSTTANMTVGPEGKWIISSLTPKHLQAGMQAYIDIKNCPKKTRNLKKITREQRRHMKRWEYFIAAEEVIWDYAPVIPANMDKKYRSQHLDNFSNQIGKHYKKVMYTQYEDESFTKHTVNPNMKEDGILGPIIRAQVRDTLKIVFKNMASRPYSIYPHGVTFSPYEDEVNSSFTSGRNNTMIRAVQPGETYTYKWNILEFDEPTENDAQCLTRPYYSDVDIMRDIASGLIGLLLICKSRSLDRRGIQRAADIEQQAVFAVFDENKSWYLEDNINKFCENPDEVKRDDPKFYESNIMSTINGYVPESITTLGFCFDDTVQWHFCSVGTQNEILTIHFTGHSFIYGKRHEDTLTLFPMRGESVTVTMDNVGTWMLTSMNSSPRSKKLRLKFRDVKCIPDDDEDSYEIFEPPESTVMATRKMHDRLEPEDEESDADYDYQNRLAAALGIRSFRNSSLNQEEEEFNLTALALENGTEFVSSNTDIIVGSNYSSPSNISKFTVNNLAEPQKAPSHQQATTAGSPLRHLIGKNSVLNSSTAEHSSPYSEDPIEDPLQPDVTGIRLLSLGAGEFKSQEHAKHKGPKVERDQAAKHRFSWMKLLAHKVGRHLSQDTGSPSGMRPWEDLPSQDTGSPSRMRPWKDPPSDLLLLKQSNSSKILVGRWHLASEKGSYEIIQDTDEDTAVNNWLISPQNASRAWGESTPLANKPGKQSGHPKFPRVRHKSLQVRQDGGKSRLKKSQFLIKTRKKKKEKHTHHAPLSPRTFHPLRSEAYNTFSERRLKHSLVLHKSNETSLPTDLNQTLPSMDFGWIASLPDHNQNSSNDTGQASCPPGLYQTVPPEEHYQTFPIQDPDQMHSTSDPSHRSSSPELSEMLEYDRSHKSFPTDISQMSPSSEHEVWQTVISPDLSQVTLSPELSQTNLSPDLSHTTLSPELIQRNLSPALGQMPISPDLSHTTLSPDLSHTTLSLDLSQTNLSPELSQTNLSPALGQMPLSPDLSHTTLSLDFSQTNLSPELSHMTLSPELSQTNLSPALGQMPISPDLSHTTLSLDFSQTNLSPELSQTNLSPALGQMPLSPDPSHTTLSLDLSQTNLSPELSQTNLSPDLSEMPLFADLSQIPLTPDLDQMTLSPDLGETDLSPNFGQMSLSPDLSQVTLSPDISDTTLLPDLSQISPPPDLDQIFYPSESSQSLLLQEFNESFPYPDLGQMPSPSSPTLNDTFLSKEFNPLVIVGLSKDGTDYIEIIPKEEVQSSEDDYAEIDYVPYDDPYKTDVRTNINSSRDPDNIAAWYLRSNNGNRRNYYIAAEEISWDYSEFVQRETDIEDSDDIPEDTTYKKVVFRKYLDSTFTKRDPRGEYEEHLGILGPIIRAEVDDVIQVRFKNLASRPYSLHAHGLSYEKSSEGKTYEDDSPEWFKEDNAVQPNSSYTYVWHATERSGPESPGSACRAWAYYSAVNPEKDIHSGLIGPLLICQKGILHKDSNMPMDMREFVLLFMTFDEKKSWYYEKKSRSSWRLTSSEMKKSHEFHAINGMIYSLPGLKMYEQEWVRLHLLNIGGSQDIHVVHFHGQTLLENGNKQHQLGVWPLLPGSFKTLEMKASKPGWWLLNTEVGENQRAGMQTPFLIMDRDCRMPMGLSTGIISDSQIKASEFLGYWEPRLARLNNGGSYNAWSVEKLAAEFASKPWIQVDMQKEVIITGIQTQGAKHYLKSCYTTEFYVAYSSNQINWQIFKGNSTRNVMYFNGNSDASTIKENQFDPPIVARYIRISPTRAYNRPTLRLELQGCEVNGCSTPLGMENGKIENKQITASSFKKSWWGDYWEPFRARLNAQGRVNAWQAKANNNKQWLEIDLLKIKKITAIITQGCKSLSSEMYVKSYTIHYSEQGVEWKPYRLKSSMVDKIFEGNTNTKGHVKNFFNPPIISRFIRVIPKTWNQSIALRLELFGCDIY
UniProt Q9NSI2: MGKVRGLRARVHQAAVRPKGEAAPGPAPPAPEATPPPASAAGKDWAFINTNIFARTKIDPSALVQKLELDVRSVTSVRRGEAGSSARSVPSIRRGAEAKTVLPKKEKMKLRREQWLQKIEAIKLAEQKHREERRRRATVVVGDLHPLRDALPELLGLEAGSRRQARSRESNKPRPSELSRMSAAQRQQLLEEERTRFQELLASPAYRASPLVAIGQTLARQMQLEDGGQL
UniProt O60645: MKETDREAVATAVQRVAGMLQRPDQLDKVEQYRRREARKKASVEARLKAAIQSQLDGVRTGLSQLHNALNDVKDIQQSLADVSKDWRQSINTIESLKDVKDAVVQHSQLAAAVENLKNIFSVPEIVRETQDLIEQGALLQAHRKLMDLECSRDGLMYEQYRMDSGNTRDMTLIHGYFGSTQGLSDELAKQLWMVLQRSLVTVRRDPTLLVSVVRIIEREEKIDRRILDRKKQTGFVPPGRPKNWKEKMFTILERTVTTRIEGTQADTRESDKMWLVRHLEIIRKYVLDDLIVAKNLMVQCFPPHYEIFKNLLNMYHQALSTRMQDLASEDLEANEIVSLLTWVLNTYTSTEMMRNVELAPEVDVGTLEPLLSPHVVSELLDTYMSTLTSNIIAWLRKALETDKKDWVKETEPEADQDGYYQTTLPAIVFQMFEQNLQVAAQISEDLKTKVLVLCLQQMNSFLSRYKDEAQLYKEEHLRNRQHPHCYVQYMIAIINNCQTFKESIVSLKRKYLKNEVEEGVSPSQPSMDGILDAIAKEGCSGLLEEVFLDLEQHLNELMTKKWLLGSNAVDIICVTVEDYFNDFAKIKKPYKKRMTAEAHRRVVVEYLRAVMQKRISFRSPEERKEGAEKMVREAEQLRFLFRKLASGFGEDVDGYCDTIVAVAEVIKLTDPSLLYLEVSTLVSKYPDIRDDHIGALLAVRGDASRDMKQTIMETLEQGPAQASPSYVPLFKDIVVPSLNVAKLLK
UniProt Q99504: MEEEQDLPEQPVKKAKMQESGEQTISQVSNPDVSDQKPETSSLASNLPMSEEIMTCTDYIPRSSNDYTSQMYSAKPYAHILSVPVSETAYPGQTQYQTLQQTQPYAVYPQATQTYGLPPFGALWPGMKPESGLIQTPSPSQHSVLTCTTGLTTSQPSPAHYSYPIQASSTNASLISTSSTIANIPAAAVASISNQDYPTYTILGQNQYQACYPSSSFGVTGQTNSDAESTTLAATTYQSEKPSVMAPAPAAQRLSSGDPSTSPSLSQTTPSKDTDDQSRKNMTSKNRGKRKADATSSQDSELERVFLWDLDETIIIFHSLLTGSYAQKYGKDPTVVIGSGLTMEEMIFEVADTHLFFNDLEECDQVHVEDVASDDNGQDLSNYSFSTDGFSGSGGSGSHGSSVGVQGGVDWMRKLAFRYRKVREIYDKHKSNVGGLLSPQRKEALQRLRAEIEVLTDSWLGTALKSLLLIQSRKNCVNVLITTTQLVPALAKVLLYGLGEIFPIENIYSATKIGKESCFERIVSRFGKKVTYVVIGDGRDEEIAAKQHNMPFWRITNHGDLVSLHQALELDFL

The other results are listed elsewhere or left out.

Compound in this test: CS(=O)(=O)CCNCc1ccc(-c2ccc3ncnc(Nc4ccc(OCc5cccc(F)c5)c(Cl)c4)c3c2)o1 [lapatinib]
Kind of test: log2 fold change, soluble protein after heating vs DMSO (PISA); higher = thermal stabilisation; K562 lysate, 10 uM; active = over 0.2 and 3.5 SD of the protein, either way, in both replicates (recomputed). Put shortly:
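K562 pellets were dounce-homogenised in PBS pH 7.4 with 1 mM MgCl2, and the crude extract at 1 mg/mL protein was treated with 10 μM compound for 30 min. Aliquots were heated for 3 min across 48°C-58°C, pooled, and brought to 0.5% NP-40 at 4°C; soluble protein was the supernatant after 21,000xg for 90 min. Soluble protein was quantified by TMTpro 16plex LC-MS/MS with channel sums equalised, and reported as log2 fold change in thermal stability against DMSO controls, with values from duplicates.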
Turning to ETNK1 (UniProt Q9HBU6), the log2 fold change was inactive: 0.001.

For FAM83A (UniProt Q86UY5), the log2 fold change is inactive: 0.012.

On to FADS3 (UniProt Q9Y5Q0), for which the log2 fold change is inactive: 0.13.

Consider EXOC2 (UniProt Q96KP1), for which the log2 fold change is inactive: -0.016.

Regarding FAM120A isoform 6 (UniProt Q9NZB2), the log2 fold change was inactive: -0.011.

For the target EXOSC5 (UniProt Q9NQT4), the log2 fold change is inactive: -0.032.

With FAM162A (UniProt Q96A26), the log2 fold change is inactive: 0.014.

For EZH2 isoform 2 (UniProt Q15910), the log2 fold change is inactive: -0.033.

As to EXOC4 (UniProt Q96A65), the log2 fold change is inactive: -0.038.

As to EXOSC4 (UniProt Q9NPD3), the log2 fold change was inactive: -0.014.

On to ESS2 (UniProt Q96DF8), for which the log2 fold change was inactive: 0.036.

As to EXOC6 (UniProt Q8TAG9), the log2 fold change was inactive: -0.017.

For FADS1, A0A0A0MR51, the log2 fold change was inactive: 0.203.

Consider F5 (UniProt P12259), for which the log2 fold change was inactive: -0.059.

Take FAM207A (UniProt Q9NSI2): the log2 fold change was inactive: 0.005.

Turning to ESD (UniProt P10768), the log2 fold change was inactive: 0.056.

For the target FAM122A (UniProt Q96E09), the log2 fold change was inactive: 0.045.

As to FAM114A2 (UniProt Q9NRY5), the log2 fold change is inactive: 0.106.

On to FAM136A (UniProt Q96C01), for which the log2 fold change is inactive: 0.012.

For EXOC3 (UniProt O60645), the log2 fold change is inactive: -0.037.

As to EYA3 (UniProt Q99504), the log2 fold change was inactive: 0.03.

With ERVK3-1, A0A0U1RQV1, the log2 fold change is inactive: 0.007.

Take ERLEC1 (UniProt Q96DZ1): the log2 fold change is inactive: 0.014.
